Compound in assay [1]: T1, CC chemokine receptor 4 (CCR4), human (human) (UniProt P51679)
T1 sequence: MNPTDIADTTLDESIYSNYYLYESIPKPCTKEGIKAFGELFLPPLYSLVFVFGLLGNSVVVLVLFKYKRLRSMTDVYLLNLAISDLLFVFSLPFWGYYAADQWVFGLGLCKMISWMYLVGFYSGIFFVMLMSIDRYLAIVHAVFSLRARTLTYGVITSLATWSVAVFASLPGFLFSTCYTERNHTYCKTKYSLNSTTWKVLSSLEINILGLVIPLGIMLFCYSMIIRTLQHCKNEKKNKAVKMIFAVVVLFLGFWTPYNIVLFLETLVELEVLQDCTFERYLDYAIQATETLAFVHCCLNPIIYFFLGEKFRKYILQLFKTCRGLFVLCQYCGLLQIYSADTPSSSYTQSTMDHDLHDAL
Put plainly: flow cytometry on cells; binding of anti-CCR4 scFv fragments to DT40/CCR4 cells in the presence of increasing concentrations of unlabeled CCL22 or CCL17; bound scFv detected with anti-cMyc antibody and PE conjugate; only the binder purified.

Compound in assay [2]: T1, 
Briefly: flow cytometry on cells; competitive inhibition on DT40/CCR4 cells: biotinylated CCL17 (3.12×10^5 nM as printed; detected with PE-streptavidin) or Alexa-647-labeled CCL22-SNAP (50 nM) competed with increasing concentrations of unlabeled IgG or ligand; only the binder purified.

These are yes or no findings as the source states them, for the method shown. Some entries that bind do so weakly or less than the wild type. For some assays here: Tags and fused reporters may be left off the sequences shown.

Results on two molecules are retold here after paper PMC4117600.

B1: macrophage-derived chemokine (MDC/CCL22), unlabeled (ligand, UniProt O00626 25-93)
chain: GPYGANMEDSVCCRDYVRYRLPLRVVKHFYWTSDSCPRPGVVLLTFRDKEICADPRVPWVKMILNKLSQ
Take B1: the binding result in assay [1] is given as “binds”.

B2: Alexa-647-labeled CCL22-SNAP fusion protein (ligand, UniProt O00626 25-93)
chain: B1 chain
modifications: Alexa-647 label
As to B2, in assay [2], the binding entry is listed as “binds”.
